The target of this experiment is vimentin (human (endogenous in Hct116 and LoVo)) (UniProt P08670). Briefly: co-IP; lysates of Hct116 and LoVo control cells and PDCs (after ATO treatment) in immunoprecipitation lysis buffer; anti-vimentin antibody overnight at 4 °C, protein A/G beads 2 h at 4 °C; normal mouse IgG as control; western blot. A general note: A western blot detects proteins with antibodies after separation by electrophoresis.

Amino acid sequences for entries named in this document (tags omitted). Residues count along the entry.
UniProt P08670: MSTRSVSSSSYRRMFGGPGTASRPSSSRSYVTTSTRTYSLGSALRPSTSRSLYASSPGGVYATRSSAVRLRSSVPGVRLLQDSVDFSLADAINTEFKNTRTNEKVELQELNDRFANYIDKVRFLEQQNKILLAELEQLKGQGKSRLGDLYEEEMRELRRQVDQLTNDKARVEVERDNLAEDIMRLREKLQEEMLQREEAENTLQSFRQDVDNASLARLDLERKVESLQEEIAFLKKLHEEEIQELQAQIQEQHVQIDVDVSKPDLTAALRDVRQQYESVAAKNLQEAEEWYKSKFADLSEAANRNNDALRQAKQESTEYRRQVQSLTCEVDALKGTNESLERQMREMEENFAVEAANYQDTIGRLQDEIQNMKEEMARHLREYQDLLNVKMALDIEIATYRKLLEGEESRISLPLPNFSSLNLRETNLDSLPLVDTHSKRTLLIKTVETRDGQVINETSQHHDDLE
UniProt P63165, residues 1-97: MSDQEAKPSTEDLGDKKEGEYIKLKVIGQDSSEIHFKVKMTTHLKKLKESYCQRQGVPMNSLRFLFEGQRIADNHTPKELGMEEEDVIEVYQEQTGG

No constants are given. Whether binding was seen depends on the method and setting. Binding seen in cells or lysates may run through a third protein. Some entries that bind do so weakly or less than the wild type.

In the case of SUMO1 (from UniProt P63165 1-97), the binding entry is given as “binds”.

Source of the values: publication PMC10576317.
